CoaBC: 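Coenzyme A biosynthesis protein CoaBC, Mycobacterium tuberculosis (UniProt P9WNZ1). Enzyme assay of CoaBC with a phosphate dye (Biomol Green) read at 650 nm. Compounds at 30 µM. Direction is inferred from only a few compounds that gave an IC50; most scored high, so higher reads as stronger inhibition. Most strong results did not repeat in a second test. Of about 67,000 compounds tested this way, about 40 (0.06%) reached 50% or more in at least one test.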
MtTrpRS: 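Tryptophan-tRNA ligase, Mycobacterium tuberculosis (UniProt P9WFT3). Enzyme assay of tryptophanyl-tRNA synthetase; the read-out is not stated. Compounds at 10 µM. Direction is not recorded; retested compounds ran higher, which suggests that high means inhibition. About 65,000 compounds were tested under these conditions; 0.098% (about 64) showed 50% or more at least once.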
TcHisRS: 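Enzyme assay of histidyl-tRNA synthetase; the read-out is not stated. Target: Histidine-tRNA ligase, Trypanosoma cruzi CL Brener (UniProt Q4DA54). Compounds at 30 µM. Higher reads as stronger inhibition (inferred: compounds with an IC50 in retests scored well above the rest). Size under these conditions: about 69,000 compounds, about 31 of them at 50% or above in at least one test.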
PfKRS1: 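Lysine-tRNA ligase, Plasmodium falciparum 3D7 (UniProt Q8IDJ8). Enzyme assay of the cytosolic lysyl-tRNA synthetase in 384-well plates, read by luminescence. Compounds at 30 µM. Direction is inferred from only a few compounds that gave an IC50; most scored high, so higher reads as stronger inhibition. Of about 69,000 compounds tested this way, about 49 (0.071%) reached 50% or more in at least one test.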

Sequences of proteins named here, by UniProt entry; tags and fusion partners are left off. Residues count along the entry.
UniProt P9WNZ1, whole entry: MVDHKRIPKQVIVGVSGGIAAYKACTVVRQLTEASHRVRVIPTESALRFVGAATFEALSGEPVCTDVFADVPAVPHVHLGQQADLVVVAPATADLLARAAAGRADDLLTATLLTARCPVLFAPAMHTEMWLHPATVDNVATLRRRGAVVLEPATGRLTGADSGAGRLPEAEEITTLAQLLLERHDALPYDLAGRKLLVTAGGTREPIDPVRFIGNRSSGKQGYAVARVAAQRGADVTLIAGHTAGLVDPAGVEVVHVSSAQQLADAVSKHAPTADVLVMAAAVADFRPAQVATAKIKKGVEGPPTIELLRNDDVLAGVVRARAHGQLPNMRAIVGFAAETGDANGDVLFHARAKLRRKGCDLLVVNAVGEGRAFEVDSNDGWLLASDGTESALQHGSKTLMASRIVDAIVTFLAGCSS
UniProt P9WFT3, whole entry: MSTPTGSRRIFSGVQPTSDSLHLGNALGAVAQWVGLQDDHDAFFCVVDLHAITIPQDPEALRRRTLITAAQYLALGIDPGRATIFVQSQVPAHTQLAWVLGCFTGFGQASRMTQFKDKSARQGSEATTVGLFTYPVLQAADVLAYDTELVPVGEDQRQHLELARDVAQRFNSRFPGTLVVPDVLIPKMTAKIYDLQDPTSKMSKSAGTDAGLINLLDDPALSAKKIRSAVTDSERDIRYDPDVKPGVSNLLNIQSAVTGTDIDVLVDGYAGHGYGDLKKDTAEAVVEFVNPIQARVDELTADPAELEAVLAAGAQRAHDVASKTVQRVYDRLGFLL
UniProt Q4DA54, 1-478: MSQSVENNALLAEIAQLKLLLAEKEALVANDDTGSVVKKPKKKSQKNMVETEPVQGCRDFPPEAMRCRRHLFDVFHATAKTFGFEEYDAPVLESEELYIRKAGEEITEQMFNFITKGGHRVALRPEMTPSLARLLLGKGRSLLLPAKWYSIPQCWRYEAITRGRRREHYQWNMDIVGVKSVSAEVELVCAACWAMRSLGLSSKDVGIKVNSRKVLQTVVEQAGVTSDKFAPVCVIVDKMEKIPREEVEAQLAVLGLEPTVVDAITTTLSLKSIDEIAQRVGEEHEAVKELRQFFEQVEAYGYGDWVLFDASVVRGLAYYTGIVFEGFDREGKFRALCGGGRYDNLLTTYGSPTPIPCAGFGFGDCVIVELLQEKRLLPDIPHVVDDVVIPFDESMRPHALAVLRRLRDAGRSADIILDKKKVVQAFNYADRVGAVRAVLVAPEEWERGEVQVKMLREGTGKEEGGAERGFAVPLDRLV
UniProt Q8IDJ8, 1-583: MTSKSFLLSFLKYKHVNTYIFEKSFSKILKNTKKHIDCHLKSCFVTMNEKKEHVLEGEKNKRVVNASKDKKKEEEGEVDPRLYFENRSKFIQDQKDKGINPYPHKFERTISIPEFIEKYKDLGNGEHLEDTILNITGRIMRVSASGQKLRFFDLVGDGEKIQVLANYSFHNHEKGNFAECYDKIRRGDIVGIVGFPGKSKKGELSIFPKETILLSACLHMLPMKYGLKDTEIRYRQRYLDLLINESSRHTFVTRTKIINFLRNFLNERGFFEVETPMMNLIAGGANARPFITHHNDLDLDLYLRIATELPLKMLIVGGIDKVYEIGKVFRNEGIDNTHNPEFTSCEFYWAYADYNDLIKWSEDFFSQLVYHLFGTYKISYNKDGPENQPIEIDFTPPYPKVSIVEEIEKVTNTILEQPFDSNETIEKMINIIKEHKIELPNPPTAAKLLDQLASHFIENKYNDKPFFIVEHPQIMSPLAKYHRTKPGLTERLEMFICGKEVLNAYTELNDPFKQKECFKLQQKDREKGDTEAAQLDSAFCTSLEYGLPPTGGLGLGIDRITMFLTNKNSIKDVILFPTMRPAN

Results are given as percent effect. How 0% and 100% were set is not recorded. Most values in the screen are low, and negative values occur. Compounds were drawn at random from those tested, without regard to their results. Two or more numbers in one place are separate tests of the same structure; such repeats can differ widely.

- Cc1cccc(C(=O)N2CCSCC2)c1NC(=O)c1cccnc1 : CoaBC: 7.426%; MtTrpRS: -1.867%; TcHisRS: 2.41%; PfKRS1: 4.218%
- Cc1cnc(C)c(N2CCC(C(=O)O)(n3ccc(C(C)(C)C)n3)CC2)n1 : CoaBC: -0.2551%; MtTrpRS: -0.3819%; TcHisRS: 3.125%; PfKRS1: 0.7951%
- COC(=O)c1ccc(C(=O)NCc2nn(C)c3c2COCC3)cc1 : CoaBC: -3.294%; MtTrpRS: -3.053%; TcHisRS: 1%; PfKRS1: 0.3152%
- CN(Cc1ncnn1C1Cc2ccccc2C1)C1CCS(=O)(=O)C1 (centres unmarked) : CoaBC: 3.639%; MtTrpRS: 1.071%; TcHisRS: 4.478%; PfKRS1: -4.116%
- Cc1noc(-c2ccnc(N3CCCN(C4CCOCC4)CC3)c2)n1 : CoaBC: -7.692%; MtTrpRS: -1.786%; TcHisRS: 7.216%; PfKRS1: -3.981%
- c1cnn(-c2ccc(CN3CCOC(Cn4cncn4)C3)cc2)c1 (centres unmarked) : CoaBC: -5.398%; MtTrpRS: 0.3934%; TcHisRS: 3.008%; PfKRS1: 7.431%
- Cc1cc(CCC2CN(CC3(O)CCCCC3)CCO2)ncn1 (centres unmarked) : CoaBC: 12.89% and 24.01%; MtTrpRS: 23.65%; TcHisRS: 8.647%; PfKRS1: -0.4882%
- CCOC(=O)C(C)NC(=O)CCSc1ccc(F)cc1 (centres unmarked) : CoaBC: -2.917%; MtTrpRS: -2.062%; TcHisRS: -1.01%; PfKRS1: 1.294%
- Cc1cnn(CCNCc2nnc(Cc3ccccc3)o2)c1 : CoaBC: 10.71%; MtTrpRS: -7.615%; TcHisRS: 7.018%; PfKRS1: 0.4877%
- Cc1nc(CC(=O)N2CCCC2c2nc(C(C)C)no2)cs1 (centres unmarked) : CoaBC: 1.333%; MtTrpRS: -0.2694%; TcHisRS: 1.02%; PfKRS1: -2.574%
- COc1cccc2c1OCC(CNC(=O)CCn1cnnn1)C2 (centres unmarked) : CoaBC: 4.673%; MtTrpRS: -3.653%; TcHisRS: 8.696%; PfKRS1: 3.714%
- CC(C)n1cc(CN2CCCN(C(=O)C3(C)CCOCC3)CC2)cn1 : CoaBC: 1.829%; MtTrpRS: 6.358%; TcHisRS: 5.422%; PfKRS1: -0.04646%
- O=C(c1cn2cc(Cl)ccc2n1)N1CCC(CCn2cccn2)CC1 : CoaBC: 4.567%; MtTrpRS: -1.142%; TcHisRS: 5.063%; PfKRS1: 3.16%
- O=C(CNC(=O)N1CCc2c([nH]c3ccc(Cl)cc23)C1)N1CCOCC1 : CoaBC: -0.4038%; MtTrpRS: 8.241%; TcHisRS: 1.639%; PfKRS1: -0.5248%
- c1ccc(-c2nc(CN3CCOC(Cn4cncn4)C3)cs2)cc1 (centres unmarked) : CoaBC: 7.024%; MtTrpRS: -6.53%; TcHisRS: 3.468%; PfKRS1: -1.317%
- Cc1cc(NC(=O)CN2CCCC2c2noc(C)n2)n(C(C)(C)C)n1 (centres unmarked) : CoaBC: 2.872%; MtTrpRS: -2.801%; TcHisRS: 0%; PfKRS1: -1.066%
- O=C(Nc1cc(-c2cccnc2)no1)C1CCCCC1 : CoaBC: -2.037%; MtTrpRS: -5.451%; TcHisRS: 4.762%; PfKRS1: 4.145%
- COc1cc(C(=O)N2CCC(c3n[nH]c(C4CC4)n3)CC2)ccc1C : CoaBC: 0%; MtTrpRS: 0.8772%; TcHisRS: 6.391%; PfKRS1: -5.129%
- Cn1ccnc1COc1ccc(NC(=O)CCC2CCCO2)cc1 (centres unmarked) : CoaBC: -2.479%; MtTrpRS: -4.932%; TcHisRS: 7.065%; PfKRS1: 2.07%
- Cc1ccc(CN(C)C(=O)CN2CC(n3cccn3)C2)o1 : CoaBC: 6.073%; MtTrpRS: 7.309%; TcHisRS: 3.261%; PfKRS1: -6.93%
- CCOCC1CN(S(=O)(=O)Cc2ccccc2)Cc2nccn2C1 (centres unmarked) : CoaBC: -0.1238%; TcHisRS: 4.523%; PfKRS1: 3%
- Cc1cnc(N2CCO[C@@H]3CC(COCc4cccnc4)C[C@H]32)nc1 (some centres unmarked) : CoaBC: 1.951%; TcHisRS: 10%; PfKRS1: 2.655%
- CCC(C)(C)NC(=O)Cn1nc(C)nc1-c1cccc(C)c1 : CoaBC: 1.205%; MtTrpRS: -0.7194%; TcHisRS: 4.58%; PfKRS1: 10.1%
- CCc1nc(C2CCCN(C(=O)c3ccc4[nH]cnc4c3)C2)no1 (centres unmarked) : CoaBC: 0.2611%; MtTrpRS: 13.04%; TcHisRS: 3.207%; PfKRS1: -1.802%

Some entries from above, unchanged:

SMILES,CoaBC,MtTrpRS,TcHisRS,PfKRS1
Cc1cc(NC(=O)CN2CCCC2c2noc(C)n2)n(C(C)(C)C)n1 (centres unmarked),2.872%,-2.801%,0%,-1.066%
CN(Cc1ncnn1C1Cc2ccccc2C1)C1CCS(=O)(=O)C1 (centres unmarked),3.639%,1.071%,4.478%,-4.116%

The values are deposited in ChEMBL (CHEMBL3988442, “University of Dundee, Small-Polar-MMV Screening Library” (2021)).